No constants are given. Whether binding was seen depends on the method and setting.
Biological target: Cry6Aa trypsin-resistant core (Bacillus thuringiensis) (UniProt Q45757)
Assay: crystal structure; trypsin-resistant core, 100 mg/ml, 20 % (w/v) PEG 1000, 0.1 M sodium phosphate dibasic/citric acid pH 4.2, 0.2 M lithium sulfate; 2.0 A; both purified

B1: Cry6Aa trypsin-resistant core (complex, UniProt Q45757 12-390)
chain 1: HSLIHTIKLNSNKKYGPGDMTNGNQFIISKQEWATIGAYIQTGLGLPVNEQQLRTHVNLSQDISIPSDFSQLYDVYCSDKTSAEWWNKNLYPLIIKSANDIASYGFKVAGDPSIKKDGYFKKLQDELDNIVDNNSDDDAIAKAIKDFKARCGILIKEAKQYEEAAKNIVTSLDQFLHGDQKKLEGVINIQKRLKEVQTALNQAHGESSPAHKELLEKVKNLKTTLERTIKAEQDLEKKVEYSFLLGPLLGFVVYEILENTAVQHIKNQIDEIKKQLDSAQHDLDRDVKIIGMLNSINTDIDNLYSQGQEAIKVFQKLQGIWATIGAQIENLRTTSLQEVQDSDDADEIQIELEDASDAWLVVAQEARDFTLNAYSTNSR
chain 2: NSNLEYKCPENNFMIYWYNNSDWYNNSDWYNN
With B1 the binding was “no binding”.
